{"source": "paper PMC10516927", "about": "“DNA-bridging by an archaeal histone variant via a unique tetramerisation interface” (Communications Biology, 2023)", "biological_target": "T1, MJ1647 (Methanocaldococcus jannaschii) (UniProt Q59041)", "T1 sequence (looked up)": "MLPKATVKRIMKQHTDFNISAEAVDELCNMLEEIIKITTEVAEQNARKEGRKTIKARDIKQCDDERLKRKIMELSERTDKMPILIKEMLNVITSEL", "assay": "EMSA", "conditions": "smear, unstable complex; EMSA: 50 nM DNA, 10 mM Tris/HCl pH 8.0, 222 mM NaCl, 0.4 mM TCEP, 0.1 mg/ml BSA, 5% glycerol, 37 C 15 min; recombinant protein; residues 1-96; protein details: untagged; label: Cy3 (Methods)", "note": "The comparison behind a weaker result is the experiment's own reference, which may not be listed here. Tags and fusion partners may be left off the protein sequences shown."}
{"sequence": "CATACTGGTTCCAAAGCATGAAATAGTTCCAA (double strand) [30 bp EMSA template]", "values": [{"measurement": "binding result", "value": "binds more weakly"}]}
